# Laboratory results reported in article PMC5775426.
# B1: B42-SlCat2 FL (full length Cat2 in pJG4-5 vector) (enzyme, UniProt Q9XHH3 1-492)
# chain: MDPYKYRPSSAFNSPFCTTNSGAPVFNNNSSLTVGARGPVLLEDYHLVEKLANFDRERIAERVVHARGASAKGFFEVTHDIAHLTCADFLRAPGVQTPVIVRFSTVIHERGSPETLRDPRGFAVKFYTREGNFDLVGNNFPVFFIRDGMKFPDMVHALKPNPKSHIQENWRVLDFFSHHPESLHMFTFLFDDIGIPQDYRHMDGSGVHTFTLINRAGKSTYVKFHWKPTCGVKSLLEEKAIRVGGANHSHATQDLYDSIAAGNYPEWKPSIQIMGPEHEDKFDFDPLDVTKTWPEDILPLQPVGRLVLNKNIDNFLYMNEQLAFCPSIVVPGVYYSDDKMLQTRIFSYSDTQRYRLGPNYLQLPANAPKCAHHNNHYDGSMNFMHRDEEIDYFPSRYDQVRHAEVYPIPSTVCSGKREKCIIQKENNFKQPGERYRSFTPDRQERFIRRWVEALSDPRITYEIRSIWITYWSQADKSLGQKLASRLNVRPSI
# B2: SlCat2-nYFP (Cat2 in pSPYNE(R)173 vector) (enzyme, UniProt Q9XHH3 1-492)
# chain: B1 chain
# B3: SlCat2-cYFP (Cat2 in pSPYNE173 vector) (enzyme, UniProt Q9XHH3 1-492)
# chain: B1 chain
# Tests used:
# [1] = target: bicoid homeodomain (pRHFM1); assay: two-hybrid; LexA bait (pEG202) and B42 prey (pJG4-5) in yeast EGY48; library screen and pairwise test; growth on YNB (gal) -ura -trp -his -leu and β-X-gal assay
# [2] = target: LexA-AV2Δ10N (AV2 lacking 10 amino acids in pEG202 vector) (Tomato leaf curl Palampur virus); assay: as above
# [3] = target: AV2-cYFP (AV2 in pSPYCE(M) vector) (Tomato leaf curl Palampur virus); assay: co-IP; extracts of N. benthamiana leaves co-expressing the BiFC constructs; 200 µg extract with 2 µg anti-HA antibody 6 h, protein G magnetic beads 10 h at 4 °C; blot with anti-cMyc
# [4] = target: AC4-cYFP (AC4 in pSPYCE(M) vector) (Tomato leaf curl Palampur virus); assay: split reporter; BiFC with YFP halves in N. benthamiana leaves, co-infiltrated with P19; confocal microscopy after 72 hours
# [5] = target: AV2-cYFP (AV2 in pSPYCE(M) vector) (Tomato leaf curl Palampur virus); assay: as above
# [6] = target: AV2-nYFP (AV2 in pSPYCE(MR) vector) (Tomato leaf curl Palampur virus); assay: as above
binder,measurement,setting,value
B1,binding,[1],no binding
same,binding,[2],binds
B2,binding,[3],binds
same,binding,[4],no binding
same,binding,[5],binds
B3,binding,[6],binds

# These are yes or no findings as the source states them, for the method shown. For part of these data: Binding calls can cover weak binding; strength is not graded here. For part of these data: In cells and extracts the contact can be indirect. For part of these data: Sequences can lack the tags named with a protein.
